{"sequences": {"note": "Amino acid sequences for entries named in this document (tags omitted). Residues count along the entry.", "UniProt P00282, residues 21-148": "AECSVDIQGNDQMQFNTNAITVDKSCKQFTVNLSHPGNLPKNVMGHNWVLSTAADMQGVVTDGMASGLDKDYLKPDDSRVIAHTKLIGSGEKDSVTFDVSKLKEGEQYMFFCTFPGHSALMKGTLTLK", "UniProt Q9I3K1": "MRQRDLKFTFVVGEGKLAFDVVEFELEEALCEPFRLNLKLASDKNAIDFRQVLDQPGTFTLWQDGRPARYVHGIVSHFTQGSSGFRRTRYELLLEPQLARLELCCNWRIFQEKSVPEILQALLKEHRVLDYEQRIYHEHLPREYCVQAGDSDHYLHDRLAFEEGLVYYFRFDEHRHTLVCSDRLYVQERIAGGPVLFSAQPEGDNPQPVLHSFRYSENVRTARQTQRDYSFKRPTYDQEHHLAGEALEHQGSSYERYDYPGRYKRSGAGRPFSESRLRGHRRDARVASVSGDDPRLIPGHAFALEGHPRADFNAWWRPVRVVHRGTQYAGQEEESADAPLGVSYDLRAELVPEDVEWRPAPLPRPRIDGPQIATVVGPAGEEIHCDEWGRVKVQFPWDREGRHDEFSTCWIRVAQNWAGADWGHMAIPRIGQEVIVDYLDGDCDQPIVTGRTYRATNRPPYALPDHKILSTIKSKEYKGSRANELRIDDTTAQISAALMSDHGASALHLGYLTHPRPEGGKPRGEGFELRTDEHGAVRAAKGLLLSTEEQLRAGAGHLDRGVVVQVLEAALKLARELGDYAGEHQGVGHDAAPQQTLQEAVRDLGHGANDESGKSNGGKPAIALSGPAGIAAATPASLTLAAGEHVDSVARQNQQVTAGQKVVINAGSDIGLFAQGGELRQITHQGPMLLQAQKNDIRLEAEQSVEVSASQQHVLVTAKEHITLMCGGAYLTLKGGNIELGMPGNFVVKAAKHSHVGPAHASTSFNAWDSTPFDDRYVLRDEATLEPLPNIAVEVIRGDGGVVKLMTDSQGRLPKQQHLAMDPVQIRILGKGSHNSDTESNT", "UniProt Q9I6M7": "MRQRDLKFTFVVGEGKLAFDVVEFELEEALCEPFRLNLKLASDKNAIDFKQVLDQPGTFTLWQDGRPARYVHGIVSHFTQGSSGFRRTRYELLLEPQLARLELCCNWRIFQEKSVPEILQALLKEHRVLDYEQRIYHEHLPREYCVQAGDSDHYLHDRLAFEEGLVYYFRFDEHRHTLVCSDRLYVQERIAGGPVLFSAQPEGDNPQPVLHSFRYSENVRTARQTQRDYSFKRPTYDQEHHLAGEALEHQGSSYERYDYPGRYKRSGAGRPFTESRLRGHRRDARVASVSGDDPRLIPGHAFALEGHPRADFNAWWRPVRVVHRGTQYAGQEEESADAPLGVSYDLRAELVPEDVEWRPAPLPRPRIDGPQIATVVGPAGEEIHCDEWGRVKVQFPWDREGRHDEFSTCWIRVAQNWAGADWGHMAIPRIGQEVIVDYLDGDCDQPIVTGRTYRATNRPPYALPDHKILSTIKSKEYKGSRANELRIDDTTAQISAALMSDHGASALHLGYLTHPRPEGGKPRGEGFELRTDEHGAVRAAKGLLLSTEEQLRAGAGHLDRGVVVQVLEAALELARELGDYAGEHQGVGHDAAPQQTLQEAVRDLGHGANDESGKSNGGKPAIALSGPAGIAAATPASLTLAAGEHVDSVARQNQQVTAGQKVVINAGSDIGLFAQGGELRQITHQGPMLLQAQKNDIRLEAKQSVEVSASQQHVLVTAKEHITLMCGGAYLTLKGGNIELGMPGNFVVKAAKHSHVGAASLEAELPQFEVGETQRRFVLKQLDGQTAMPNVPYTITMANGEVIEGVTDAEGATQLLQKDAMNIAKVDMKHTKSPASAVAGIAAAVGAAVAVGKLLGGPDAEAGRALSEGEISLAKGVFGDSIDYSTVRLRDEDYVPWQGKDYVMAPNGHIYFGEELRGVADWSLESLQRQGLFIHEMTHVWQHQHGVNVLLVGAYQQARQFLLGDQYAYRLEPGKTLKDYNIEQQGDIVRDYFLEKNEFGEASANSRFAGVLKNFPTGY"}, "source": "paper PMC6907878", "target": "GST-Azu (glutathione S-transferase-tagged azurin) (Pseudomonas aeruginosa PAO1) (UniProt P00282)", "assay": "pull-down; cell lysates of P. aeruginosa containing pMMB67H-VgrG2a-Flag or pMMB67H-VgrG2b-Flag incubated with GST or GST-Azu; complexes captured by glutathione beads; only the target purified", "note": "No constants are given. Whether binding was seen depends on the method and setting. Binding seen in cells or lysates may run through a third protein. Some entries that bind do so weakly or less than the wild type."}
{"substance": "VgrG2a-Flag (from UniProt Q9I3K1 1-842)", "values": [{"measurement": "binding", "value": "no binding"}]}
{"substance": "VgrG2b-Flag (from UniProt Q9I6M7 1-1019)", "values": [{"measurement": "binding", "value": "binds"}]}
